These are yes or no findings as the source states them, for the method shown.

What all share (test): SEC-MALS; both purified
In general terms: In gel filtration, larger molecules generally elute earlier.

Test [1] concerns the target Im9 mutant (C23A/E41C), unmodified (UniProt P13479).
For test [2], the target named is colicin E9 immunity protein (Im9), wild type (UniProt P13479).
Test [3] deals with methacrylate-modified Im9 mutant (C23A/E41C) (UniProt P13479).

For “Im9 mutant (C23A/E41C), unmodified (from UniProt P13479 1-86)”, the binding result in test [1] is recorded as “no binding (tested: 200 µM)”.
“colicin E9 immunity protein (Im9), wild type (from UniProt P13479 1-86)”: in test [2], the binding result was “no binding (tested: 200 µM)”.
With “methacrylate-modified Im9 mutant (C23A/E41C) (from UniProt P13479 1-86)”, the binding result in test [3] is “no binding (tested: 200 µM)”.

For the origin of these results see PMC10692228, “A simple method for developing lysine targeted covalent protein reagents” (Nature Communications, 2023).
